{"source": "PubChem BioAssay AID504834", "about": "(National Center for Advancing Translational Sciences (NCATS), 2011)", "note": "The whole screen tested about 320,000 compounds, of which about 22,000 (6.9%) were called active. Inconclusive results, whose numbers are uncertain, are shown with a selection of clear calls. Calls come from the whole dose curve; as a rule, active = well fitted inhibition curve with a large enough effect; inconclusive = small, poorly fitted or top-dose-only effect, or another doubt; inactive = no such curve, though single readings can be large or run the other way. Where the call is inconclusive, the potency comes from a doubtful curve fit. % is set by controls: 0 for no effect and ±100 for the full control effect; potency is the fitted concentration of half-maximal effect."}
{"assay": "Primary qHTS for delayed death inhibitors of the malarial parasite plastid, 96 hour incubation", "settings": "P. falciparum luciferase reporter growth; series mostly up to 28.7 µM; activity change, negative = inhibition: at the top concentration", "method_in_brief": "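Cell-based qHTS: luciferase-tagged P. falciparum in erythrocytes (2% hematocrit, 0.05% parasitemia final) incubated with compounds for 96 hours, 37 C, 5% CO2; luciferase detection reagent then added and luminescence measured.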"}
{"smiles": "Clc1ccc2nc(-c3ccncc3)cc(-c3ccccc3)c2c1", "Potency": "inconclusive: 4.15 µM [inhibitor, single point]"}
{"smiles": "COC(=O)N=Nc1c(O)n(Cc2ccccc2)c2ccccc12", "activity change, negative = inhibition": "inactive: 2.52%"}
{"smiles": "O=C(Cc1ccccc1)Nc1cc(Cl)ccc1Sc1ccccc1", "Potency": "inconclusive: 9.28 µM [inhibitor, partial curve, poor fit]"}
{"smiles": "COCCn1c(=S)[nH]c2cc(C(=O)NCCc3ccc(OC)c(OC)c3)ccc2c1=O", "Potency": "inconclusive: 7.38 µM [inhibitor, partial curve, poor fit]"}
{"smiles": "COc1ccc(SCCN2CC[C@@H](NC(=O)OCc3ccccc3)CCC2=O)cc1", "Potency": "inconclusive: 9.28 µM [inhibitor, partial curve, poor fit]"}
{"smiles": "CC(C)c1cc(CNC(=O)CCc2nnc(CCCCc3ccccc3)o2)on1", "Potency": "inconclusive: 10.4 µM [inhibitor, partial curve]"}
{"smiles": "COc1ccc(OC)c(NC(=O)CS(=O)(=O)c2cn(CC(=O)N3CCOCC3)c3ccccc23)c1", "Potency": "inconclusive: 0.0294 µM [inhibitor, full curve, poor fit]"}
{"smiles": "CN(C)C(=O)Oc1ccc(OCc2n(C)c3ccccc3[n+]2C)cc1", "Potency": "active: 2.33 µM"}
{"smiles": "COc1cccc(CSc2nc3ccccc3cc2C=O)c1", "activity change, negative = inhibition": "inactive: 34.5%"}
{"smiles": "CCOc1ccc2nc(N(Cc3ccccc3)C(=O)CCNC(C)=O)sc2c1", "Potency": "inconclusive: 11.7 µM [inhibitor, single point]"}
{"smiles": "CCOc1ccccc1CNC(=O)C1CCCN(c2ncnc3c2nc2n3CCCCC2)C1", "note": "(centres undefined)", "Potency": "inconclusive: 1.47 µM [inhibitor, partial curve, poor fit]"}
{"smiles": "CCN(CC)C(=O)c1cccc(NC(=O)c2ccccc2OCc2c(C)noc2C)c1", "Potency": "inconclusive: 11.7 µM [inhibitor, single point]"}
{"smiles": "Cc1cc(N)n(Cc2cccs2)n1", "activity change, negative = inhibition": "inactive: 16.6%"}
{"smiles": "CS(=O)(=O)N(CC(=O)O)Cc1cccc(CN(CC(=O)O)S(C)(=O)=O)c1", "Potency": "inconclusive: 0.329 µM [inhibitor, full curve, poor fit]"}
{"smiles": "CCC1CCC(C(=O)NC(C(=O)NCCN2CCOCC2)C(C)C)CC1", "note": "(centres undefined)", "Potency": "inconclusive: 10.4 µM [inhibitor, single point]"}
{"smiles": "Nc1ccc(Nc2nc3ccccc3[nH]2)cc1", "activity change, negative = inhibition": "inactive: 0%"}
{"smiles": "COc1cc2c(cc1NC(=O)c1cccc(Br)c1)CCCC2", "Potency": "inconclusive: 4.15 µM [inhibitor, partial curve, poor fit]"}
{"smiles": "COc1ccccc1CC(=O)NNC(=O)c1cccs1", "Potency": "active: 0.262 µM"}
{"smiles": "Cc1cc(=O)[nH]c(N/N=C/c2c(C)oc3ccccc23)n1", "Potency": "inconclusive: 13.1 µM [inhibitor, single point]"}
